Data as given in PMC10890935.
No constants are given. Whether binding was seen depends on the method and setting. In cells and extracts the contact can be indirect. A result given as binding can be weak or reduced; the word gives no strength.

Amino acid sequences for entries named in this document (tags omitted). A change or cut given only in a name is not applied to a line headed by its entry.
UniProt A8LHT0: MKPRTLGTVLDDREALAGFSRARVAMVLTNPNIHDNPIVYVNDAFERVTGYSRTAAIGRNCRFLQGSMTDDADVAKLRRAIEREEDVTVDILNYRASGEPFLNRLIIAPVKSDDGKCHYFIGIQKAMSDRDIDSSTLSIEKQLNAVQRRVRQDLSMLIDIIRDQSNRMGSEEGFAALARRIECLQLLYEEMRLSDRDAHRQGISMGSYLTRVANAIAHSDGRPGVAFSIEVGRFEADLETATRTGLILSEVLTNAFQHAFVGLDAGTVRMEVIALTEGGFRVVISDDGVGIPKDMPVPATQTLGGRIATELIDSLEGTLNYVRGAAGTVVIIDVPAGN

Target: Dshi_1135-Strep fusion protein (Dinoroseobacter shibae) (UniProt A8LHT0)
Test: pull-down; Strep-Tactin co-affinity purification of Dshi_1135-Strep from D. shibae after 0.125% formaldehyde cross-linking; cells grown under white light, blue light or dark; elution fractions on 15% SDS-PAGE, western blot with a PpsR specific antiserum

binding: binds
B1: PpsR repressor (protein, UniProt A8LQ24 1-476)
chain: MNTRERDFWDDRSAPRIAPEHFNEIVATAADLAIVLDLKGTVQSLVVNPLNPTIGRLDHWQKRDIREFLAEDSLAKLEKQLSAYQQGEVPPTDAIEVNHFDNANWEFPIRYTLHRTGDENLILMLGRDLRPVAELQHRLVKAQLALEKDYESHRDYETRYRVVMESTRDPLVLVDASSGRITDMNSAAAQVLGAEADALVGSLFGHEFNGLKRGELLDQLMGAATSDTNSSVTAHTKRTAKELKIQARLFRASGDKTLLCRLEGAGAQEVIAEELSEVLTLLFREGADAVVFTDPTGMIRNVNEAFLNLTDVGQLGDIKGKSLSDFLARGSVDLKVMMDNASRHGSMPVYSTRLESAYGSQLSVEISATHLEARQNGGFAFVFRDASRLEVVRDAAPVNGAVSGEAMQNVMELVGSAPLKDIVSATTDVVEKMCIETAVGLTRNNRVAAAEMLGLSRQSLYVKLRKYGLLNKGGDE
